Measured values published in patent publication US20240319166A1, “Genetically-encoded volatile synthetic biomarkers for breath-based cancer detection” (The Board of Trustees of the Leland Stanford Junior …, priority 2021, published 2024).

System: limonene
Test: Chamber/sorbent trap VOC sampling from xenograft tumor mice (GC-MS)
Type: in vivo
Settings: xenograft mouse model, limonene-expressing HeLa cells

`C=C(C)[C@H]1CC=C(C)CC1` [limonene] was tested, and the “smallest tumor diameter at which limonene was detected” value was roughly 5 mm and the “smallest tumor volume at which limonene was detected” value was 120 mm^3.
